Assay results reported in the supplement of paper PMC8728848.
The other results are listed elsewhere or left out.

Columns and labels:
Assay in all cases: glycan array binding signal (z-score within array); higher = stronger binding
Conditions in all cases: glycan notation: IUPAC condensed, linker removed
[1] = biological target: Neu5Ac(a2-3)Gal(b1-3)GalNAc(b1-3)Gal(a1-4)Gal(b1-4)Glc
Outline: (§1)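 Glycan array data were curated from 3228 arrays in the Consortium for Functional Glycomics database and kept only where the protein sequence was available. Glycan names were converted to IUPAC-condensed notation, and columns mapping to the same glycan were averaged. The binding signal is a within-array Z-score, averaged across arrays of the same protein sequence at different concentrations or buffers and across linkers. Negative Z-scores can be read as non-binding.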

[2] = biological target: Neu5Ac(a2-3)Gal(b1-3)GalNAc(b1-4)[Neu5Ac(a2-3)]Gal(b1-4)Glc
Outline: as §1

[3] = biological target: Neu5Ac(a2-3)Gal(b1-3)GalNAc(b1-4)[Neu5Ac(a2-8)Neu5Ac(a2-3)]Gal(b1-4)Glc
Outline: as §1

[4] = biological target: Neu5Ac(a2-3)Gal(b1-3)GalNAc6S
Outline: as §1

[5] = biological target: Neu5Ac(a2-3)Gal(b1-3)GlcNAc
Outline: as §1

[6] = biological target: Neu5Ac(a2-3)Gal(b1-3)GlcNAc(b1-2)Man
Outline: as §1

[7] = biological target: Neu5Ac(a2-3)Gal(b1-3)GlcNAc(b1-2)Man(a1-3)[GlcNAc(b1-4)][Neu5Ac(a2-3)Gal(b1-3)GlcNAc(b1-2)Man(a1-6)]Man(b1-4)GlcNAc(b1-4)GlcNAc
Outline: as §1

[8] = biological target: Neu5Ac(a2-3)Gal(b1-3)GlcNAc(b1-2)Man(a1-3)[Neu5Ac(a2-3)Gal(b1-3)GlcNAc(b1-2)Man(a1-6)]Man(b1-4)GlcNAc(b1-4)GlcNAc
Outline: as §1

[9] = biological target: Neu5Ac(a2-3)Gal(b1-3)GlcNAc(b1-3)Gal(b1-3)GlcNAc
Outline: as §1

[10] = biological target: Neu5Ac(a2-3)Gal(b1-3)GlcNAc(b1-3)Gal(b1-4)GlcNAc
Outline: as §1

[11] = biological target: Neu5Ac(a2-3)Gal(b1-3)GlcNAc(b1-3)GalNAc
Outline: as §1

[12] = biological target: Neu5Ac(a2-3)Gal(b1-3)GlcNAc(b1-4)Gal(b1-4)Glc
Outline: as §1

[13] = biological target: Neu5Ac(a2-3)Gal(b1-3)GlcNAc(b1-6)GalNAc
Outline: as §1

[14] = biological target: Neu5Ac(a2-3)Gal(b1-3)GlcNAc6S
Outline: as §1

[15] = biological target: Neu5Ac(a2-3)Gal(b1-3)[Fuc(a1-4)]GlcNAc
Outline: as §1

[16] = biological target: Neu5Ac(a2-3)Gal(b1-3)[Fuc(a1-4)]GlcNAc(b1-3)Gal(b1-3)[Fuc(a1-4)]GlcNAc
Outline: as §1

[17] = biological target: Neu5Ac(a2-3)Gal(b1-3)[Fuc(a1-4)]GlcNAc(b1-3)Gal(b1-4)[Fuc(a1-3)]GlcNAc
Outline: as §1

[18] = biological target: Neu5Ac(a2-3)Gal(b1-3)[GlcNAc(b1-6)]GalNAc
Outline: as §1

[19] = biological target: Neu5Ac(a2-3)Gal(b1-3)[Neu5Ac(a2-6)]GalNAc
Outline: as §1

[20] = biological target: Neu5Ac(a2-3)Gal(b1-3)[Neu5Ac(a2-6)]GlcNAc(b1-3)[Fuc(a1-3)[Gal(b1-4)]GlcNAc(b1-6)]Gal(b1-4)Glc
Outline: as §1

[21] = biological target: Neu5Ac(a2-3)Gal(b1-3)]Neu5Ac(a2-3)Gal(b1-4)]GlcNAc
Outline: as §1

Neu5Ac(a2-3)Gal(b1-4)Glc = biological target: Neu5Ac(a2-3)Gal(b1-4)Glc
Outline: as §1

[22] = biological target: Neu5Ac(a2-3)Gal(b1-4)GlcNAc
Outline: as §1

[23] = biological target: Neu5Ac(a2-3)Gal(b1-4)GlcNAc(b1-2)Man
Outline: as §1

[24] = biological target: Neu5Ac(a2-3)Gal(b1-4)GlcNAc(b1-2)Man(a1-3)[GlcNAc(b1-4)][Neu5Ac(a2-3)Gal(b1-4)GlcNAc(b1-2)Man(a1-6)]Man(b1-4)GlcNAc(b1-4)GlcNAc
Outline: as §1

[25] = biological target: Neu5Ac(a2-3)Gal(b1-4)GlcNAc(b1-2)Man(a1-3)[Neu5Ac(a2-3)Gal(b1-4)GlcNAc(b1-2)Man(a1-6)]Man(b1-4)GlcNAc(b1-4)GlcNAc
Outline: as §1

[26] = biological target: Neu5Ac(a2-3)Gal(b1-4)GlcNAc(b1-2)Man(a1-3)[Neu5Ac(a2-3)Gal(b1-4)GlcNAc(b1-2)Man(a1-6)]Man(b1-4)GlcNAc(b1-4)[Fuc(a1-6)]GlcNAc
Outline: as §1

[27] = biological target: Neu5Ac(a2-3)Gal(b1-4)GlcNAc(b1-2)Man(a1-3)[Neu5Ac(a2-6)Gal(b1-4)GlcNAc(b1-2)Man(a1-6)]Man(b1-4)GlcNAc(b1-4)GlcNAc
Outline: as §1

[28] = biological target: Neu5Ac(a2-3)Gal(b1-4)GlcNAc(b1-2)[Neu5Ac(a2-3)Gal(b1-4)GlcNAc(b1-4)]Man(a1-3)[GlcNAc(b1-4)][Neu5Ac(a2-3)Gal(b1-4)GlcNAc(b1-2)[Neu5Ac(a2-3)Gal(b1-4)GlcNAc(b1-6)]Man(a1-6)]Man(b1-4)GlcNAc(b1-4)GlcNAc
Outline: as §1

[29] = biological target: Neu5Ac(a2-3)Gal(b1-4)GlcNAc(b1-2)[Neu5Ac(a2-3)Gal(b1-4)GlcNAc(b1-4)]Man(a1-3)[GlcNAc(b1-4)][Neu5Ac(a2-3)Gal(b1-4)GlcNAc(b1-4)Man(a1-6)]Man(b1-4)GlcNAc(b1-4)GlcNAc
Outline: as §1

[30] = biological target: Neu5Ac(a2-3)Gal(b1-4)GlcNAc(b1-2)[Neu5Ac(a2-3)Gal(b1-4)GlcNAc(b1-6)]Man(a1-6)[Neu5Ac(a2-3)Gal(b1-4)GlcNAc(b1-2)Man(a1-3)]Man(b1-4)GlcNAc(b1-4)GlcNAc
Outline: as §1

[31] = biological target: Neu5Ac(a2-3)Gal(b1-4)GlcNAc(b1-2)[Neu5Ac(a2-3)Gal(b1-4)GlcNAc(b1-6)]Man(a1-6)[Neu5Ac(a2-3)Gal(b1-4)GlcNAc(b1-2)Man(a1-3)][GlcNAc(b1-4)]Man(b1-4)GlcNAc(b1-4)GlcNAc
Outline: as §1

[32] = biological target: Neu5Ac(a2-3)Gal(b1-4)GlcNAc(b1-3)Gal
Outline: as §1

[33] = biological target: Neu5Ac(a2-3)Gal(b1-4)GlcNAc(b1-3)Gal(b1-3)GlcNAc
Outline: as §1

[34] = biological target: Neu5Ac(a2-3)Gal(b1-4)GlcNAc(b1-3)Gal(b1-4)GlcNAc
Outline: as §1

[35] = biological target: Neu5Ac(a2-3)Gal(b1-4)GlcNAc(b1-3)Gal(b1-4)GlcNAc(b1-2)Man(a1-3)[Neu5Ac(a2-3)Gal(b1-4)GlcNAc(b1-3)Gal(b1-4)GlcNAc(b1-2)Man(a1-6)]Man(b1-4)GlcNAc(b1-4)GlcNAc
Outline: as §1

[36] = biological target: Neu5Ac(a2-3)Gal(b1-4)GlcNAc(b1-3)Gal(b1-4)GlcNAc(b1-3)Gal(b1-4)GlcNAc
Outline: as §1

[37] = biological target: Neu5Ac(a2-3)Gal(b1-4)GlcNAc(b1-3)Gal(b1-4)GlcNAc(b1-3)Gal(b1-4)GlcNAc(b1-2)Man(a1-3)[Neu5Ac(a2-3)Gal(b1-4)GlcNAc(b1-3)Gal(b1-4)GlcNAc(b1-3)Gal(b1-4)GlcNAc(b1-2)Man(a1-6)]GalNAc
Outline: as §1

[38] = biological target: Neu5Ac(a2-3)Gal(b1-4)GlcNAc(b1-3)Gal(b1-4)GlcNAc(b1-3)GalNAc
Outline: as §1

[39] = biological target: Neu5Ac(a2-3)Gal(b1-4)GlcNAc(b1-3)Gal(b1-4)GlcNAc(b1-3)[Neu5Ac(a2-3)Gal(b1-4)GlcNAc(b1-3)Gal(b1-4)GlcNAc(b1-6)]GalNAc
Outline: as §1

[40] = biological target: Neu5Ac(a2-3)Gal(b1-4)GlcNAc(b1-3)Gal(b1-4)GlcNAc(b1-6)[Gal(b1-3)]GalNAc
Outline: as §1

[41] = biological target: Neu5Ac(a2-3)Gal(b1-4)GlcNAc(b1-3)Gal(b1-4)[Fuc(a1-3)]GlcNAc
Outline: as §1

[42] = biological target: Neu5Ac(a2-3)Gal(b1-4)GlcNAc(b1-3)GalNAc
Outline: as §1

[43] = biological target: Neu5Ac(a2-3)Gal(b1-4)GlcNAc(b1-3)[Neu5Ac(a2-3)Gal(b1-4)GlcNAc(b1-6)]GalNAc
Outline: as §1

[44] = biological target: Neu5Ac(a2-3)Gal(b1-4)GlcNAc(b1-6)GalNAc
Outline: as §1

B1: Pbx1CASH domain (Cryptococcus neoformans) (protein)
chain: MDETKPLWGNPRADGISLACKDSIVERNVVYDATDGAIVLFGSAGSTVKNNHVYARTRVILGGINLVDYEPWDGDYTNVKVHHNHLYALGRYFKVGIVIGPASWSDDTESVVHSASVTDNEFSGGYWGYGIVVASAKNFEVLRNKVIWDGEQGVARFSGVPGS
glycan array binding signal (z-score) [1]: 0.338
glycan array binding signal (z-score) [2]: -0.169
glycan array binding signal (z-score) [3]: 0.435
glycan array binding signal (z-score) [4]: -0.62
glycan array binding signal (z-score) [5]: -0.491
glycan array binding signal (z-score) [6]: 1.24
glycan array binding signal (z-score) [7]: -0.044
glycan array binding signal (z-score) [8]: 2.22
glycan array binding signal (z-score) [9]: -0.164
glycan array binding signal (z-score) [10]: 0.137
glycan array binding signal (z-score) [11]: -0.077
glycan array binding signal (z-score) [12]: 0.567
glycan array binding signal (z-score) [13]: -0.316
glycan array binding signal (z-score) [14]: 0.698
glycan array binding signal (z-score) [15]: -0.375
glycan array binding signal (z-score) [16]: -0.309
glycan array binding signal (z-score) [17]: -0.701
glycan array binding signal (z-score) [18]: 0.877
glycan array binding signal (z-score) [19]: 0.03
glycan array binding signal (z-score) [20]: -0.764
glycan array binding signal (z-score) [21]: -0.205
glycan array binding signal (z-score) (Neu5Ac(a2-3)Gal(b1-4)Glc): -0.606
glycan array binding signal (z-score) [22]: -0.811
glycan array binding signal (z-score) [23]: 2.55
glycan array binding signal (z-score) [24]: 0.499
glycan array binding signal (z-score) [25]: -0.62
glycan array binding signal (z-score) [26]: -0.325
glycan array binding signal (z-score) [27]: 0.108
glycan array binding signal (z-score) [28]: 1.21
glycan array binding signal (z-score) [29]: 1.05
glycan array binding signal (z-score) [30]: -0.136
glycan array binding signal (z-score) [31]: 0.771
glycan array binding signal (z-score) [32]: 0.289
glycan array binding signal (z-score) [33]: -0.104
glycan array binding signal (z-score) [34]: -0.499
glycan array binding signal (z-score) [35]: 2.42
glycan array binding signal (z-score) [36]: -0.198
glycan array binding signal (z-score) [37]: 3.29
glycan array binding signal (z-score) [38]: 0.774
glycan array binding signal (z-score) [39]: -0.158
glycan array binding signal (z-score) [40]: 1
glycan array binding signal (z-score) [41]: -0.205
glycan array binding signal (z-score) [42]: -0.184
glycan array binding signal (z-score) [43]: -0.296
glycan array binding signal (z-score) [44]: 0.564
